{"sequences": {"note": "Amino acid sequences for entries named in this document (tags omitted). Residues count along the entry.", "UniProt P09055, residues 21-798": "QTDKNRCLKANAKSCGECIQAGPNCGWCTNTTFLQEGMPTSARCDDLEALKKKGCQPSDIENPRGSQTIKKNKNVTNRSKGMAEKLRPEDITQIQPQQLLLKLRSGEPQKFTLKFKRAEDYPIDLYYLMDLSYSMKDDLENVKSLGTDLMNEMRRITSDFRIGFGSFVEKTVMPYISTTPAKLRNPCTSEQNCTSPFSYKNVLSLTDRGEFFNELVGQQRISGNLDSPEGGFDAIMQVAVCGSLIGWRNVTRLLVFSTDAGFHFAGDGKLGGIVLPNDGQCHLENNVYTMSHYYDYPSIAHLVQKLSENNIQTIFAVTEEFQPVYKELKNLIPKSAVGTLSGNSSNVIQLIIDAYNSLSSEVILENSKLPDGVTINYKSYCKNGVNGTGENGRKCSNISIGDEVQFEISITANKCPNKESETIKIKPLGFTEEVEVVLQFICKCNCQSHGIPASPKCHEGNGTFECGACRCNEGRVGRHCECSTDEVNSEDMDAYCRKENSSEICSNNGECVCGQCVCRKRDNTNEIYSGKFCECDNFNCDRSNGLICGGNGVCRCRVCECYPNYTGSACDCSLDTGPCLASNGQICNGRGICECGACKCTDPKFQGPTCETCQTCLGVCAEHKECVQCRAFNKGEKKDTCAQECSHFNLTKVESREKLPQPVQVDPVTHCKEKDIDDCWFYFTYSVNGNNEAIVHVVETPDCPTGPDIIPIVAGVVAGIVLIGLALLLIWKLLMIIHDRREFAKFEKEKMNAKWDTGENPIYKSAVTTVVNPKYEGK"}, "source": "patent US20050260202A1", "about": "“Methods for producing proliferating muscle cells” (The Regents of the University of California, priority 2004, published 2005)", "molecular_target": "T1, murine Sca-1 (stem cell antigen-1) (murine) (UniProt P05533)", "T1 sequence (chain, GPI-anchored membrane protein)": "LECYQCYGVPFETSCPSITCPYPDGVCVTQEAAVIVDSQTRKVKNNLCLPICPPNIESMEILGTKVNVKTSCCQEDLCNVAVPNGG", "assay": "western blot of lysates of differentiating C2C12 myoblasts (association; method not described further)", "note": "Results are given in words; binding and its absence hold for the method and conditions named. Some binding calls cover weakened binding; strength is not graded here.", "data": [{"substance": "beta1-integrin (from UniProt P09055 21-798) (receptor)", "values": [{"measurement": "binding", "value": "binds"}]}]}
